The values that follow are results of earlier work, collected in article PMC2774495 (Cancer chemotherapy and pharmacology, 2009).

By IC50 is commonly meant the concentration that gives 50% inhibition.

For this data set, the target named is human aromatase. Particulars: read-out: IC50 for inhibition of human aromatase; cited from earlier work.

Structures are written as SMILES.

Take `CC(C)(C#N)c1cc(Cn2cncn2)cc(C(C)(C)C#N)c1` [anastrozole]: the IC50 is roughly 15 nM.
